This is an account of results in the supplement of paper PMC10849652.

Protein sequences, listed by entry. Tags and fused reporters are not part of them. Lines headed by an entry give the natural chain unless they say otherwise; changes in a name come on top.
UniProt Q5U3C3: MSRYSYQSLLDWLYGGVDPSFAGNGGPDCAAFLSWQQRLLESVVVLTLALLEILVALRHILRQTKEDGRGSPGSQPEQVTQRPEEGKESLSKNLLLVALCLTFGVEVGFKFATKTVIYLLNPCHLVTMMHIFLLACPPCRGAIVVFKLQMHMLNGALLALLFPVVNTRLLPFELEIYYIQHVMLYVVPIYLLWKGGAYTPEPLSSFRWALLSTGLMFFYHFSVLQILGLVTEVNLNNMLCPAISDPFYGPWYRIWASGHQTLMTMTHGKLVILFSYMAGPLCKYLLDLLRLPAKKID
UniProt Q9NUM4, whole entry, looked up: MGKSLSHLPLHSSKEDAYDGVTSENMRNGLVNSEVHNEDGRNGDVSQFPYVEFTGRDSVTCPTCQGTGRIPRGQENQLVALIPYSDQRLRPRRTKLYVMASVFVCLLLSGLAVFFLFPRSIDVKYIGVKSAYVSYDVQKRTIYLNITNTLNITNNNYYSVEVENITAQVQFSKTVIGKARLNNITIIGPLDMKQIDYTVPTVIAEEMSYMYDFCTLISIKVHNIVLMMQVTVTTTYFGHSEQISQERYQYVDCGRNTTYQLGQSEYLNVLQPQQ
UniProt Q9Y3Q3: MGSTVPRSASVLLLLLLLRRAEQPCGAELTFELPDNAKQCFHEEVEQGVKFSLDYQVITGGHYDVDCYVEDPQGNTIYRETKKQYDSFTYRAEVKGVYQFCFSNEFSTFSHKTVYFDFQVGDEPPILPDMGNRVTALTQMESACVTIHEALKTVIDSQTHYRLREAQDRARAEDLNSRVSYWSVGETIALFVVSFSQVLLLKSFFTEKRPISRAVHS
UniProt Q9BVT8: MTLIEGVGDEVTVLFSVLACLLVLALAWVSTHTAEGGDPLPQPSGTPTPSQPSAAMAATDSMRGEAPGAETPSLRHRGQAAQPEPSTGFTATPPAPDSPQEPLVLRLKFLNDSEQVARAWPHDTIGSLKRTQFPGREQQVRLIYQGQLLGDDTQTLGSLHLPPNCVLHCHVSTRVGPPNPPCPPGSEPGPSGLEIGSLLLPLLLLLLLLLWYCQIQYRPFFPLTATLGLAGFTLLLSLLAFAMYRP
UniProt Q9H6X4: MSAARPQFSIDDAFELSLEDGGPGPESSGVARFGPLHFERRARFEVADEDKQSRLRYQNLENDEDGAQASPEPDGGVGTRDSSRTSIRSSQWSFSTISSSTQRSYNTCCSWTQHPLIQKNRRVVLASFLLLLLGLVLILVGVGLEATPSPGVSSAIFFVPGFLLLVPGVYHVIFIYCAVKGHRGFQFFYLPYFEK
UniProt Q96I45: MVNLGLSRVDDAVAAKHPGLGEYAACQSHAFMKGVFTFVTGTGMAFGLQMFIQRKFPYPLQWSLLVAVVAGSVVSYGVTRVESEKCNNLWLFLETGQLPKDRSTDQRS
UniProt O94886: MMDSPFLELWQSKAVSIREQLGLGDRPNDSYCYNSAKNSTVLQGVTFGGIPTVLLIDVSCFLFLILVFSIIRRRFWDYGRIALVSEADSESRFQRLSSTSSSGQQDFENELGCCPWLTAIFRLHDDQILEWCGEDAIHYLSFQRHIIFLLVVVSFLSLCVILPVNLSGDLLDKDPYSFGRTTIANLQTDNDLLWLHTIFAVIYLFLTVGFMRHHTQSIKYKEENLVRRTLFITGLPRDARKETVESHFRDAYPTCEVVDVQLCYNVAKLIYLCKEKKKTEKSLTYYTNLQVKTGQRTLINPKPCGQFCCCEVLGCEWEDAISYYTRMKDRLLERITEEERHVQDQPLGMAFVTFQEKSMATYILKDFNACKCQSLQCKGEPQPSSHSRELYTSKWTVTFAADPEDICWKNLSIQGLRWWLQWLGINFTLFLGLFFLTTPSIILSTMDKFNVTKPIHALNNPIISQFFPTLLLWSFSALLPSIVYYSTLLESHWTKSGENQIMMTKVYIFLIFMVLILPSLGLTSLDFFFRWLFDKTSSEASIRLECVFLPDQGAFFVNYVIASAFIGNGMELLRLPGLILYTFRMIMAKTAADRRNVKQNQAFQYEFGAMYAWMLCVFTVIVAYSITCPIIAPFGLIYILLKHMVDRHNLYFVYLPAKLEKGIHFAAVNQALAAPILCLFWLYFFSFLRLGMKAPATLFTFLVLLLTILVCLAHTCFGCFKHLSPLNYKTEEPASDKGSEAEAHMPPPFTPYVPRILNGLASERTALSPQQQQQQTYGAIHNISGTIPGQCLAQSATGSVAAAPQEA
UniProt A0PJW6: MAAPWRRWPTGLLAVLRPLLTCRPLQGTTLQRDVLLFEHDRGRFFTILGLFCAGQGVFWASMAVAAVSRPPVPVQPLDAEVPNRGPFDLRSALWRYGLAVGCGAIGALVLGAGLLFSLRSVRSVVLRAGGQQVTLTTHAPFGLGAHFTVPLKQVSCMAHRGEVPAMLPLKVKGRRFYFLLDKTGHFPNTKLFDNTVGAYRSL
UniProt Q9NWH2: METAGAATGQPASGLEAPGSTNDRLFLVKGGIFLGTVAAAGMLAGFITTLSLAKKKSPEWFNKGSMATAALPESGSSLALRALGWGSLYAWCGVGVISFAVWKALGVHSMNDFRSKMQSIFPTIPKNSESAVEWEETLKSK
UniProt O00220, whole entry, looked up: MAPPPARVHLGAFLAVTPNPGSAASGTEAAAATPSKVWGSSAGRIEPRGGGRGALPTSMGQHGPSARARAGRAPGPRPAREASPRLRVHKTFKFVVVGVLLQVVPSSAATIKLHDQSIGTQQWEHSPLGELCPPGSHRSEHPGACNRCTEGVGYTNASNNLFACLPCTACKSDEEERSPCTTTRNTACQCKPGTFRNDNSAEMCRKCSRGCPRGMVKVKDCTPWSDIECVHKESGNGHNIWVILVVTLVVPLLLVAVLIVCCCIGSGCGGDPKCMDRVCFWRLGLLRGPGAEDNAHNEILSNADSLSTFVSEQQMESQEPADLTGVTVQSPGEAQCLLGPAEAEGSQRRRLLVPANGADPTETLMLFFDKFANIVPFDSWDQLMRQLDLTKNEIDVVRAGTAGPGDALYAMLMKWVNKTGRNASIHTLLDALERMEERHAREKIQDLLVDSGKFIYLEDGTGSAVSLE
UniProt Q9NQ34: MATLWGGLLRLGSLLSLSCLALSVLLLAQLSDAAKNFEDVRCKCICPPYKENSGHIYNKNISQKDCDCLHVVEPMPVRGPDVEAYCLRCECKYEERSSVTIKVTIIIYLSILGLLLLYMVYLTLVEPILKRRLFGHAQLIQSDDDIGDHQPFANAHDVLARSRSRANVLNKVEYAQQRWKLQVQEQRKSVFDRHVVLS
UniProt Q96K49: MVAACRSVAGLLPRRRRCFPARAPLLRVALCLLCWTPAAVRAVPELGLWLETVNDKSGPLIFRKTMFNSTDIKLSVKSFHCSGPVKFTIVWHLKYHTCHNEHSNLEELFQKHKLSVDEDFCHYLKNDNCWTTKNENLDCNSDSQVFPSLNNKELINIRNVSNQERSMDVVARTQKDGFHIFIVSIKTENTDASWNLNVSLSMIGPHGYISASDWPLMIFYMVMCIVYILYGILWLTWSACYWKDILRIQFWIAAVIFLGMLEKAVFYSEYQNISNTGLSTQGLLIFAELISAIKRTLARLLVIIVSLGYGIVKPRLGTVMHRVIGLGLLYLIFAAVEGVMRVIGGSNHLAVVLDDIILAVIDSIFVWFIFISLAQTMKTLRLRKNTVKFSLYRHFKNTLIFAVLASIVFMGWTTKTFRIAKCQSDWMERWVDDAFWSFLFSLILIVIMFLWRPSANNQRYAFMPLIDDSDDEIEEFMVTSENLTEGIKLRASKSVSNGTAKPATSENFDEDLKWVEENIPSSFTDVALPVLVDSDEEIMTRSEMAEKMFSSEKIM
UniProt Q8NE00: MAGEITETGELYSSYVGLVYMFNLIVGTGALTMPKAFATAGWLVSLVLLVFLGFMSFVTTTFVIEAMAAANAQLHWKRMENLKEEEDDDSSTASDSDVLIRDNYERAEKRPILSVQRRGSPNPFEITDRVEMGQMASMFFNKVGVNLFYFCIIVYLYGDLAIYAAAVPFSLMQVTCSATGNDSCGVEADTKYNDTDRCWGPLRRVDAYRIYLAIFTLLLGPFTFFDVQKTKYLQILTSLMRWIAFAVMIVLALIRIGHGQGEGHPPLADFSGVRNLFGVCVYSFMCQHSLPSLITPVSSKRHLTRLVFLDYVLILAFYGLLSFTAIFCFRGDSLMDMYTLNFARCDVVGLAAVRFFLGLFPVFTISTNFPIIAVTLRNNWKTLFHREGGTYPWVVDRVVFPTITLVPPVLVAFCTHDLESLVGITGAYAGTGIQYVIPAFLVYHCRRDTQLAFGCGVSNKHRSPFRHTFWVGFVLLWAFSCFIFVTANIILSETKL
UniProt O14763, whole entry, looked up: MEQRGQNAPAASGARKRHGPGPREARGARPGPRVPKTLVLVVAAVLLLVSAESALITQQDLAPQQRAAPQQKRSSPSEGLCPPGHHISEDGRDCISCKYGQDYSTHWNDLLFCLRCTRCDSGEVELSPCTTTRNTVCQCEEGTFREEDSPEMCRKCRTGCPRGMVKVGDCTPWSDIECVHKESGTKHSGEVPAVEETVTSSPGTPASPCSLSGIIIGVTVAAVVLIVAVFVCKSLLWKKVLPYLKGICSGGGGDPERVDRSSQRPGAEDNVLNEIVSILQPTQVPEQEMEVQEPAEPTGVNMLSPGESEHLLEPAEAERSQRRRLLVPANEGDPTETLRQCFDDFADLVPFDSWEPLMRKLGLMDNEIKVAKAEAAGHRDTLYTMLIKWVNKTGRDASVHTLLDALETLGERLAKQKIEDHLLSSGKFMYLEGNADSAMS
UniProt Q9NS93: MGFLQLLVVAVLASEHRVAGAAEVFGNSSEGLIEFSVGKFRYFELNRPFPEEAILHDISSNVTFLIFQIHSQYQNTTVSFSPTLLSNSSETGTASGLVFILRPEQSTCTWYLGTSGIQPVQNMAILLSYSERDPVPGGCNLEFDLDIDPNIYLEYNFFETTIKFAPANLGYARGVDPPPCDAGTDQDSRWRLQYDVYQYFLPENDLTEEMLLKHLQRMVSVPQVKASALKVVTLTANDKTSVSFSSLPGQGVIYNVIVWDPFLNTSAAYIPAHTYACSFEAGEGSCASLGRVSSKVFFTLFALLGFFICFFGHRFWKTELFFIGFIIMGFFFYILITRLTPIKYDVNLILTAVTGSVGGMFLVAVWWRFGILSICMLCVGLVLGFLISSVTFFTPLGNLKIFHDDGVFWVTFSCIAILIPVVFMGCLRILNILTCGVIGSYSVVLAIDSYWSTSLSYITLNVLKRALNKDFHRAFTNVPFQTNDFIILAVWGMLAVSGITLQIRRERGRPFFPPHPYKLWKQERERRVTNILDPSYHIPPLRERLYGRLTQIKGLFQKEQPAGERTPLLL
UniProt Q969X1: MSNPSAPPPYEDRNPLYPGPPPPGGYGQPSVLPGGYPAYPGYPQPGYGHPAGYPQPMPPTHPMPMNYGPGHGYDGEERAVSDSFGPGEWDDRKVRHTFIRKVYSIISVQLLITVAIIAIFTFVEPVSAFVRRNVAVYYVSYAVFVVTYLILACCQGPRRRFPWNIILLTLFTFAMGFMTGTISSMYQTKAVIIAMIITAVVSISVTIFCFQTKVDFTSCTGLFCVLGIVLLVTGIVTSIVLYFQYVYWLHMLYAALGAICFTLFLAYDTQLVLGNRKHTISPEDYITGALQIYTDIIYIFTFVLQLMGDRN
UniProt Q6PL24: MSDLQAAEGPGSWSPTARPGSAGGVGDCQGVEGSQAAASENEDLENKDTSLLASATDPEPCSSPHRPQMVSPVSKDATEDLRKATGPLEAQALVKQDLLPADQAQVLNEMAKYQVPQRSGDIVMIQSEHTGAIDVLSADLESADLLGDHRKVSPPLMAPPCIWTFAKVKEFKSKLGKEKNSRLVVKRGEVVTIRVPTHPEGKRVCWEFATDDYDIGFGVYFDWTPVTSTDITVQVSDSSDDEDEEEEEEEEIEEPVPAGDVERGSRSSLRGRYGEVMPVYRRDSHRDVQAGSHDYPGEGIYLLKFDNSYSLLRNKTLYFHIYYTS
UniProt Q9P2C4: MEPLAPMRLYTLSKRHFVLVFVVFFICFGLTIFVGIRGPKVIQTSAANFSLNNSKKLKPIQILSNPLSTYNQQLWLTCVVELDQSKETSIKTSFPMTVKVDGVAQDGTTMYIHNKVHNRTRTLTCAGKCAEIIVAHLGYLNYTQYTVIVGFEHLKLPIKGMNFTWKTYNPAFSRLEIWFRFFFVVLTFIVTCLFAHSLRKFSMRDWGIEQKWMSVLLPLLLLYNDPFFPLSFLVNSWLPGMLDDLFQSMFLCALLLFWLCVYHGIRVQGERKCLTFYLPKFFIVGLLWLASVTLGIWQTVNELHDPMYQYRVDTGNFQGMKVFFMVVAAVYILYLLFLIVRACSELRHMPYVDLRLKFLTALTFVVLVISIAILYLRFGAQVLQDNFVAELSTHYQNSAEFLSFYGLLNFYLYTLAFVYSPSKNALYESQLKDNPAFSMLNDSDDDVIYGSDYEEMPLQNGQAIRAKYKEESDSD
UniProt Q96IK0: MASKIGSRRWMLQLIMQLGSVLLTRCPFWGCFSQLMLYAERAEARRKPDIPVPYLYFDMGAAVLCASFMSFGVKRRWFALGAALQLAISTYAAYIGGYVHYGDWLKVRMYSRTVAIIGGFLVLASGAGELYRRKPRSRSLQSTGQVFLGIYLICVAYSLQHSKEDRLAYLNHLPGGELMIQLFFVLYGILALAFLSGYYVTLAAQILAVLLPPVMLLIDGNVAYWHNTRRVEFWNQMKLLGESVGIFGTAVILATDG

The other results are listed elsewhere or left out.

Compound in one test: CC(C)(O)CC(=O)NCCn1ccc2ncnc(Nc3ccc(Oc4cccc(C(F)(F)F)c4)c(Cl)c3)c21
Put plainly: log2 fold change, soluble protein after heating vs DMSO (PISA); higher = thermal stabilisation; K562 cells, 10 uM, 30 min; active = over 0.2 and 3.5 SD of the protein, either way, in both replicates (recomputed). The method, boiled down: (§1)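 K562 cells at 2×10^6 cells/mL were treated with 10 μM compound for 30 min. Aliquots were heated for 3 min across 48°C-58°C, pooled, and extracted in PBS with 0.5% NP-40 at 4°C; soluble protein was the supernatant after 21,000xg for 90 min. Soluble protein was quantified by TMTpro 16plex LC-MS/MS with channel sums equalised, and reported as log2 fold change in thermal stability against DMSO controls, with values from duplicates.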
For TMEM164 (UniProt Q5U3C3), the log2 fold change was inactive: -0.025.
The same measure, in the same setting: to TLK2 isoform 2 (UniProt Q86UE8) belongs inactive: -0.077.
The same measure, in the same setting: to TMEM106B (UniProt Q9NUM4) belongs inactive: 0.043.
On to TMEM9 (UniProt Q9P0T7), for which the log2 fold change was inactive: -0.07.
Same read-out and setting: to TMED3 (UniProt Q9Y3Q3) belongs inactive: -0.056; to TMEM189-UBE2V1 (UniProt I3L0A0), inactive: -0.024; to TMUB1 (UniProt Q9BVT8), inactive: 0.028.

Compound in the next test: CC(C)C1=C2N=C(C=C(N2N=C1)NCC3=CC=CC=C3)NCCCCCCN
The description is as above. Summed up: as §1
Consider TMEM134 (UniProt Q9H6X4), for which the log2 fold change is inactive: 0.143.
The same measure, in the same setting: to TMEM69 (UniProt Q5SWH9) belongs inactive: 0.112.
The same measure, in the same setting: to TMEM177 (UniProt Q53S58) belongs inactive: -0.131; to TMEM141 (UniProt Q96I45), inactive: -0.066.
Take TMEM63A (UniProt O94886): the log2 fold change is inactive: 0.016.
In the case of TMEM120B (UniProt A0PK00), the log2 fold change was inactive: 0.131.
As to TMEM147 (UniProt Q9BVK8), the log2 fold change was inactive: -0.106.
On the same count and under the same terms, to TMC1 (UniProt Q8TDI8) belongs inactive: -0.204; to TLR9 isoform 4 (UniProt Q9NR96), inactive: -0.038.
On the same count and under the same terms, to TMEM223 (UniProt A0PJW6) belongs inactive: -0.063; to TMEM242 (UniProt Q9NWH2), inactive: 0.017; to TNFRSF10A (UniProt O00220), inactive: 0.043.
In the case of TMEM9B (UniProt Q9NQ34), the log2 fold change was inactive: -0.082.
Same read-out and setting: to TMEM268 isoform 3 (UniProt Q5VZI3) belongs inactive: -0.095.
On the same count and under the same terms, to TMEM87B (UniProt Q96K49) belongs active: -0.39; to TMEM161B (UniProt Q8NDZ6), inactive: -0.052.
On the same count and under the same terms, to TMEM14C (UniProt Q9P0S9) belongs inactive: -0.003.
TM6SF1 (UniProt Q9BZW5): the log2 fold change was inactive: 0.075.
As to TMEM104 (UniProt Q8NE00), the log2 fold change is active: -0.473.
Same read-out and setting: to TNFAIP3 (UniProt P21580) belongs inactive: -0.056.
Still for that read-out and setting: to TNFRSF10B (UniProt O14763) belongs inactive: 0.056; to TM7SF3 (UniProt Q9NS93), active: -0.485.
On the same count and under the same terms, to TMC6 (UniProt Q7Z403) belongs inactive: -0.073; to TMEM192 (UniProt Q8IY95), active: -0.481.
In the case of TMEM41A (UniProt Q96HV5), the log2 fold change is inactive: 0.043.
Still for that read-out and setting: to TMEM123 (UniProt Q8N131) belongs inactive: 0.221.
For TMBIM1 (UniProt Q969X1), the log2 fold change was inactive: -0.066.
In the case of TMEM219 (UniProt Q86XT9), the log2 fold change is inactive: 0.007.
Regarding TMEM164 (UniProt Q5U3C3), the log2 fold change is inactive: -0.309.
Same read-out and setting: to TLK2 isoform 2 (UniProt Q86UE8) belongs inactive: 0.011; to TMED8 (UniProt Q6PL24), inactive: -0.04.
Regarding TMEM267 (UniProt Q0VDI3), the log2 fold change is inactive: -0.178.
Turning to TMEM181 (UniProt Q9P2C4), the log2 fold change was inactive: 0.077.
Regarding TMEM106B (UniProt Q9NUM4), the log2 fold change is inactive: -0.092.
The same measure, in the same setting: to TMEM9 (UniProt Q9P0T7) belongs inactive: -0.211.
The same measure, in the same setting: to TMED3 (UniProt Q9Y3Q3) belongs inactive: -0.139; to TMEM189-UBE2V1 (UniProt I3L0A0), inactive: 0.031; to TMEM101 (UniProt Q96IK0), inactive: -0.219.
Regarding TMUB1 (UniProt Q9BVT8), the log2 fold change is inactive: -0.114.
